We go through 42 molecules from PubChem BioAssay AID662 (National Center for Advancing Translational Sciences (NCATS), 2007).

The structures appear in SMILES notation. Some of the results follow. The main result of the screen is listed elsewhere. These columns were measured beside it and carry no call. The list favours compounds with an active or inconclusive main result. Potencies come from curve fits of mixed quality, noted in brackets.

This experiment can be described thus: Cell signaling CRE-BLA (Fsk stim). To be noted: CHO CRE-bla reporter (cAMP response element driving beta-lactamase), forskolin EC10, beta-lactamase ratio; measured here: 460 nm blue channel. The procedure, abridged:
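CRE-bla CHO reporter cells treated with compound titration plus EC10 NKH 477 (water-soluble forskolin), incubated 3 h at 37 °C; CCF4 loading 2 h at room temperature, 460/530 nm emission ratio read, AC50 values derived for positive or negative modulators.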
The term AC50 denotes the concentration at which the activity in the assay is half-maximal. On to `O=C(Nc1ncnc2sc3c(c12)CCC3)c1ccco1`, for which the AC50 is 5.01 µM [rising, full curve, poor fit]. As for `CSCCC(NC(N)=O)C(=O)NCC1CCCCC1` (configuration not stated), the figure is 3.98 µM [falling, single point]; as for `Oc1ccc(-c2nc3cnccn3c2Nc2ccc3c(c2)OCCO3)cc1`, 12.6 µM [falling, partial curve].

For `O=C(C1CC1)N(CCc1ccccc1)Cc1nc2ccccc2c(=O)[nH]1`, the AC50 is 0.794 µM [falling, partial curve].

`CCOC(=O)c1cc2c(ccn2C)n1CC(=O)N1CCC(Cc2ccccc2)CC1`: the AC50 is 3.16 µM [falling, single point]. As for `COC(=O)c1[nH]c2ccc(C)cc2c1NS(=O)(=O)c1ccc(F)c(C)c1`, the figure is 15.8 µM [rising, single point]; as for `CC(C)(C)Nc1nc(OCC(F)(F)F)nc(OCC(F)(F)F)n1`, 15.8 µM [rising, partial curve]; as for `CC(C)CCn1c(=O)c2ccccc2n2c(CN(C)Cc3ccccc3)nnc12`, 12.6 µM [rising, single point]. As for `O=C(CCn1nc(-c2ccc(Cl)cc2)ccc1=O)N1CCN(c2ccccn2)CC1`, the figure is 10 µM [rising, partial curve]; as for `CCSc1ccccc1C(=O)n1nnc2ccccc21`, 2 µM [falling, full curve]. As for `CCOC(=O)CSc1nnc(-c2nnc(SCC(=O)OCC)n2CC)n1CC`, the figure is 2.51 µM [falling, full curve]; as for `NC(=O)c1cnn2c(C(F)(F)F)cc(-c3ccccc3)nc12`, 25.1 µM [rising, single point].

Take `COc1nc(NCCc2ccc(OC)c(OC)c2)nc(OC)n1`: the AC50 was 10 µM [rising, partial curve]. As for `CN=C(NC#N)NCCSCc1nc[nH]c1C`, the figure is 10 µM [falling, full curve, poor fit]. As for `COc1cc(OC)cc(-c2nnc(SCc3c(F)cccc3Cl)o2)c1`, the figure is 6.31 µM [rising, partial curve]; as for `CCOc1cc2[nH]c(=S)n(CCCOC)c(=O)c2cc1OCC`, 25.1 µM [rising, single point]; as for `Cc1c(C(=O)N2CCN(c3ccccc3)CC2)sc2ncnc(N3CCN(c4ccccc4)CC3)c12`, 3.16 µM [falling, single point]. `COc1ccc(OCC(=O)N2CCN(c3cccc(C(F)(F)F)c3)CC2)cc1`: the AC50 was 12.6 µM [falling, partial curve].

For the molecule `Cc1ccc(C(=O)[C@@H]2[C@@H]3[C@@H](C(=O)[C@@H]4OC[C@H]3O4)[C@@H]3C=Cc4ccccc4N23)cc1`, the AC50 is 31.6 µM [falling, single point]. Consider `COc1ccc(NC(=O)CSc2nc3c(c(=O)n2-c2ccc(F)cc2)SCC3)c(OC)c1`, for which the concentration at half-maximal activity (AC50) was 3.16 µM [rising, full curve, poor fit].

For the molecule `CCn1c(CSc2nc3ccccc3n2C)nc2ccccc21`, the AC50 was 10 µM [rising, partial curve]. `CC1CCN(CCNC(=O)CCS(=O)(=O)c2ccc(Br)cc2)CC1`: the AC50 is 0.794 µM [falling, partial curve]. As for `Cc1ccc2ccccc2c1CSc1nc(N)nc2c1ncn2CC(C)C`, the figure is 3.98 µM [rising, partial curve]. Take `CCCN(c1ccc(C(C)C)cc1)S(=O)(=O)c1c(C)noc1C`: the AC50 is 10 µM [rising, single point]. As for `CC(=O)c1cccc(NC(=O)N2CCCC2C(=O)NC2CCCCC2)c1` (configuration not stated), the figure is 15.8 µM [falling, single point]; as for `COCCn1c(-c2cc(OC)c(OC)c(OC)c2)nc2nc3ccccc3nc21`, 3.98 µM [rising, partial curve, poor fit]; as for `Cc1nc2ccccc2c(=O)n1NC(=O)c1c(O)c2c(n(CC(C)C)c1=O)CCCC2`, 6.31 µM [rising, partial curve].

For the molecule `Clc1ccccc1-c1nn2c(Cn3cnc4ccccc43)nnc2s1`, the half-maximal activity concentration (AC50) was 15.8 µM [rising, single point].

As to `CCCCCCN(CCCCCC)C(=O)Cc1c(-c2ccc(F)cc2)[nH]c2ccccc12`, the AC50 is 12.6 µM [falling, single point]. As for `O=C1c2ccccc2C(=O)N1CCc1nc2ccccc2c(=O)n1Cc1ccco1`, the figure is 12.6 µM [rising, partial curve]. As for `COCCn1c(=S)[nH]c2ccc(N(C)C)cc2c1=O`, the figure is 12.6 µM [rising, single point]. As for `O=c1c(CCc2ccccc2)nc2cnc(N3CCOCC3)nc2n1C1CC1`, the figure is 20 µM [rising, single point]; as for `CCOC(=O)c1sc(C)c2c1NC(C)(c1cccs1)NC2=O` (configuration not stated), 10 µM [rising, single point]; as for `O=C(OC1CCc2ccccc2C1=O)c1ccccc1O` (configuration not stated), 12.6 µM [falling, partial curve]. As to `O=C(CSc1nc(Nc2ccccc2)nc(N2CCOCC2)n1)Nc1ccc2c(c1)OCCO2`, the AC50 was 10 µM [rising, partial curve]. Consider `CCNc1ncc2nc(-c3ccc(OC)cc3)c(=O)n(C)c2n1`, for which the half-maximal activity concentration (AC50) is 5.01 µM [rising, partial curve]. As for `N#Cc1nc(COc2ccccc2F)oc1N1CCCCCC1`, the figure is 12.6 µM [rising, partial curve]; as for `O=C(CCn1nc(-c2ccccc2)c2ccccc2c1=O)NCC1CCCO1` (configuration not stated), 12.6 µM [rising, partial curve]; as for `CSc1nc(N)c2ncn([C@H]3O[C@H](COP(=O)(O)OP(=O)(O)O)[C@@H](O)[C@@H]3O)c2n1`, 31.6 µM [falling, single point]. As for `CCN(CC(=O)NC1CCCC1)S(=O)(=O)c1ccc(C)cc1`, the figure is 5.01 µM [falling, single point]; as for `COC(=O)c1ccc(CSc2nc3c(c(=O)n2-c2ccc(Br)cc2)SCC3)o1`, 2.51 µM [rising, single point]; as for `CCc1cccc2c1NC(=O)[C@]21[C@@H]2C(=O)N(Cc3ccccc3)C(=O)[C@@H]2[C@@H]2CCCN21`, 20 µM [falling, partial curve, poor fit].
